Reference: patent US5236903A, “Polypeptide comprising repeated cell-adhesive core sequences” (Azuma; Ichiro, priority 1988, dated 1993)
Part of at least one peptide drawing is inferred or uncertain, most often the ends. Ends that are not written are not given here. Peptide text beside a SMILES is read from it.

Columns and labels:
B16-BL6 melanoma cells = assay: Experimental metastasis to lung induced by intravenously injecting B16-BL6 melanoma cells; type: in vivo, C57BL/6 mice
[1] = tested on: Lewis lung cancer cells (3 LL); assay: Experimental metastasis to lung induced by injecting Lewis lung cancer cells (3LL); type: in vivo, C57BL/6 mice
Procedure: Namely, portions of 2, 20 and 100 μg of the above compound were each mixed with 3×10^4 Lewis lung cancer cells (3 LL) and administered to a group of C57BL/6 mice in the same manner as the one described in the above (b). Thus the antimetastatic effect of this compound was examined.

[2] = tested on: adhesion of B16-BL6 melanoma cells to fibronectin; assay: Inhibition of B16-BL6 cell adhesion to fibronectin-coated substrate by peptides present during culture; type: cell-based, mouse
Procedure: First, microculture wells were preliminarily coated with 20 μg/ml of the polypeptide to be examined or 5 μg/ml of mouse fibronectin (obtained from Seikagaku Kogyo, Japan) which was used as a positive control. Next 0.05 ml/well of B16-BL6 melamona cells (2×10^4) labeled with a radioactive iodide [^125 I]IUdR was added thereto and the cells were cultured at 37° C. for 20 minutes. The number of cells thus adsorbed by the culture wells was determined by measuring the radioactivity. 1% bovine serum albumin (BSA) was employed as a negative control. The B16-BL6 melanoma cells were labeled by culturing the cells to be labeled at the logarithmic growth phase for 24 hours in an MEM medium containing 5% of FBS and 0.3 μCi/ml of [^125 I]IUdR (200 mCi/mmol; obtained from New England Nuclear, Boston, Mass., USA).
The labeled cells were washed with physiological saline solution twice and suspended in 0.02% EDTA for 1 minute. Subsequently the cells were collected and suspended in a serum-free MEM medium. The cell suspension thus obtained was used in the above examination. The unadsorbed cells in the well were washed away with PBS 4 times. Then the cells adsorbed by the well were dissolved in 0.1 ml of 0.1N NaOH. The number of adsorbed cells was determined by measuring the radioactivity of the dissolved cells.

Row | Compound | No. of instances of metastasis to lung mean ± SD (B16-BL6 melanoma cells; 5 μg/animal) | No. of instances of metastasis to lung mean ± SD (B16-BL6 melanoma cells; 20 μg/animal) | No. of instances of metastasis to lung mean ± SD (B16-BL6 melanoma cells; 100 μg/animal) | No. of instances of metastasis to lung mean ± SD ([1]; 3LL, 100 μg/animal) | Antimetastatic effect on metastasis to the lungs (in words) ([1]; polypeptide 2, 20 and 100 μg, pentapeptide 100 μg, mixed with cancer cells) | Amount required to achieve a significant antimetastatic effect ([1]; result not shown in the Table) | Inhibition of adhesion of fibronectin to cells (in words) ([2]; 100 or 500 μg/ml peptide (His-Gly-Gly 500 μg/ml)) | Adhesiveness adhered cell No./substrate (SD) ([2]; fibronectin coating, incubated with 500 μg/ml peptide)
1 | YIGSR [Tyr-Ile-Gly-Ser-Arg, reference compound] | 128 ± 31 | 109 ± 39 | 101 ± 17 | 123 ± 45 | scarcely any antimetastatic effect | at least 200 μg |  | 
2 | N[C@@H](Cc1c[nH]cn1)C(=O)NCC(=O)NCC(=O)O [His-Gly-Gly] (H-His-Gly-Gly-OH) |  |  |  |  |  |  | no inhibition | 6133 ± 787 adhered cell No./substrate
